Assay results reported in PMC6003922, “Functional switching of ascorbate peroxidase 2 of rice (OsAPX2) between peroxidase and molecular chaperone” (Scientific Reports, 2018).
Results are given in words; binding and its absence hold for the method and conditions named. Some results given as binding are weak or reduced against the parent protein; the word gives no strength. Values belong to the binder of their own block, whether it stands above or below them.

Tests used:
[1] = molecular target: recombinant Oryza sativa ascorbate peroxidase 2 (OsAPX2) protein (Oryza sativa) (UniProt Q9FE01); experiment: native gel or EMSA; 10% native-PAGE of purified recombinant OsAPX2 and of its SEC fractions F1-F4; both purified
[2] = molecular target: recombinant Oryza sativa ascorbate peroxidase 2 (OsAPX2) protein (Oryza sativa) (UniProt Q9FE01); experiment: SEC; re-chromatography of the concentrated fractions F1-F4 under the original SEC conditions; data not shown; both purified
[3] = molecular target: OsAPX2 in the salt-tolerant rice cultivar Pokkali (Oryza sativa (endogenous in cv. Pokkali)) (UniProt Q9FE01); experiment: native gel or EMSA; 10% native-PAGE of crude total protein extracts of rice plants, western blot with polyclonal anti-OsAPX2 antibody; plants untreated, 100 mM NaCl for 3 d, and 3 d recovery
[4] = molecular target: OsAPX2 in crude protein extracts of the salt-sensitive rice cultivar IR29 (Oryza sativa (endogenous in cv. IR29)) (UniProt Q9FE01); experiment: as above

binding [1]: binds
binding [2]: binds
B1: recombinant Oryza sativa ascorbate peroxidase 2 (OsAPX2) protein (enzyme, UniProt Q9FE01 1-251, looked up)
chain: MGSKSYPTVSDEYLAAVGKAKRKLRGLIAEKNCAPLMLRLAWHSAGTFDVSSRTGGPFGTMKNPGEQSHAANAGLDIAVRLLDPIKDQLPILSYADFYQLAGVVAVEVTGGPEVPFHPGRQDKPEPPPEGRLPDATQGSDHLRQVFSAQMGLSDKDIVALSGGHTLGRCHKERSGFEGAWTSNPLIFDNSYFTELVSGEKEGLLQLPSDKALMADPAFRPLVEKYAADEDAFFADYAEAHLKLSELGFAEE
notes: Ascorbate peroxidase 2 (OsAPX2), cytosolic, Oryza sativa; the OsAPX2 gene cloned into pET28a; monomer of approximately 27 kDa on reducing SDS-PAGE; Haem-containing peroxidase; also called His-tagged OsAPX2; purified OsAPX2; source: E. coli BL21 (DE3), pET28a, purified (nickel-nitrilotriacetate agarose; SEC)

B2: OsAPX2 in the salt-tolerant rice cultivar Pokkali (enzyme, UniProt Q9FE01 1-251)
chain: MGSKSYPTVSDEYLAAVGKAKRKLRGLIAEKNCAPLMLRLAWHSAGTFDVSSRTGGPFGTMKNPGEQSHAANAGLDIAVRLLDPIKDQLPILSYADFYQLAGVVAVEVTGGPEVPFHPGRQDKPEPPPEGRLPDATQGSDHLRQVFSAQMGLSDKDIVALSGGHTLGRCHKERSGFEGAWTSNPLIFDNSYFTELVSGEKEGLLQLPSDKALMADPAFRPLVEKYAADEDAFFADYAEAHLKLSELGFAEE
binding [3]: binds

binding [4]: binds
B3: OsAPX2 in crude protein extracts of the salt-sensitive rice cultivar IR29 (enzyme, UniProt Q9FE01 1-251)
chain: MGSKSYPTVSDEYLAAVGKAKRKLRGLIAEKNCAPLMLRLAWHSAGTFDVSSRTGGPFGTMKNPGEQSHAANAGLDIAVRLLDPIKDQLPILSYADFYQLAGVVAVEVTGGPEVPFHPGRQDKPEPPPEGRLPDATQGSDHLRQVFSAQMGLSDKDIVALSGGHTLGRCHKERSGFEGAWTSNPLIFDNSYFTELVSGEKEGLLQLPSDKALMADPAFRPLVEKYAADEDAFFADYAEAHLKLSELGFAEE
